The values below come from the supplement of paper PMC12819154, “High-throughput peptide-centric local stability assay extends protein–ligand identification to membrane proteins, tissues and bacteria” (Nature Structural & Molecular Biology, 2025).

Sequences of proteins named here, by UniProt entry; tags and fusion partners are left off. A change or cut given only in a name is not applied to a line headed by its entry.
UniProt Q14517: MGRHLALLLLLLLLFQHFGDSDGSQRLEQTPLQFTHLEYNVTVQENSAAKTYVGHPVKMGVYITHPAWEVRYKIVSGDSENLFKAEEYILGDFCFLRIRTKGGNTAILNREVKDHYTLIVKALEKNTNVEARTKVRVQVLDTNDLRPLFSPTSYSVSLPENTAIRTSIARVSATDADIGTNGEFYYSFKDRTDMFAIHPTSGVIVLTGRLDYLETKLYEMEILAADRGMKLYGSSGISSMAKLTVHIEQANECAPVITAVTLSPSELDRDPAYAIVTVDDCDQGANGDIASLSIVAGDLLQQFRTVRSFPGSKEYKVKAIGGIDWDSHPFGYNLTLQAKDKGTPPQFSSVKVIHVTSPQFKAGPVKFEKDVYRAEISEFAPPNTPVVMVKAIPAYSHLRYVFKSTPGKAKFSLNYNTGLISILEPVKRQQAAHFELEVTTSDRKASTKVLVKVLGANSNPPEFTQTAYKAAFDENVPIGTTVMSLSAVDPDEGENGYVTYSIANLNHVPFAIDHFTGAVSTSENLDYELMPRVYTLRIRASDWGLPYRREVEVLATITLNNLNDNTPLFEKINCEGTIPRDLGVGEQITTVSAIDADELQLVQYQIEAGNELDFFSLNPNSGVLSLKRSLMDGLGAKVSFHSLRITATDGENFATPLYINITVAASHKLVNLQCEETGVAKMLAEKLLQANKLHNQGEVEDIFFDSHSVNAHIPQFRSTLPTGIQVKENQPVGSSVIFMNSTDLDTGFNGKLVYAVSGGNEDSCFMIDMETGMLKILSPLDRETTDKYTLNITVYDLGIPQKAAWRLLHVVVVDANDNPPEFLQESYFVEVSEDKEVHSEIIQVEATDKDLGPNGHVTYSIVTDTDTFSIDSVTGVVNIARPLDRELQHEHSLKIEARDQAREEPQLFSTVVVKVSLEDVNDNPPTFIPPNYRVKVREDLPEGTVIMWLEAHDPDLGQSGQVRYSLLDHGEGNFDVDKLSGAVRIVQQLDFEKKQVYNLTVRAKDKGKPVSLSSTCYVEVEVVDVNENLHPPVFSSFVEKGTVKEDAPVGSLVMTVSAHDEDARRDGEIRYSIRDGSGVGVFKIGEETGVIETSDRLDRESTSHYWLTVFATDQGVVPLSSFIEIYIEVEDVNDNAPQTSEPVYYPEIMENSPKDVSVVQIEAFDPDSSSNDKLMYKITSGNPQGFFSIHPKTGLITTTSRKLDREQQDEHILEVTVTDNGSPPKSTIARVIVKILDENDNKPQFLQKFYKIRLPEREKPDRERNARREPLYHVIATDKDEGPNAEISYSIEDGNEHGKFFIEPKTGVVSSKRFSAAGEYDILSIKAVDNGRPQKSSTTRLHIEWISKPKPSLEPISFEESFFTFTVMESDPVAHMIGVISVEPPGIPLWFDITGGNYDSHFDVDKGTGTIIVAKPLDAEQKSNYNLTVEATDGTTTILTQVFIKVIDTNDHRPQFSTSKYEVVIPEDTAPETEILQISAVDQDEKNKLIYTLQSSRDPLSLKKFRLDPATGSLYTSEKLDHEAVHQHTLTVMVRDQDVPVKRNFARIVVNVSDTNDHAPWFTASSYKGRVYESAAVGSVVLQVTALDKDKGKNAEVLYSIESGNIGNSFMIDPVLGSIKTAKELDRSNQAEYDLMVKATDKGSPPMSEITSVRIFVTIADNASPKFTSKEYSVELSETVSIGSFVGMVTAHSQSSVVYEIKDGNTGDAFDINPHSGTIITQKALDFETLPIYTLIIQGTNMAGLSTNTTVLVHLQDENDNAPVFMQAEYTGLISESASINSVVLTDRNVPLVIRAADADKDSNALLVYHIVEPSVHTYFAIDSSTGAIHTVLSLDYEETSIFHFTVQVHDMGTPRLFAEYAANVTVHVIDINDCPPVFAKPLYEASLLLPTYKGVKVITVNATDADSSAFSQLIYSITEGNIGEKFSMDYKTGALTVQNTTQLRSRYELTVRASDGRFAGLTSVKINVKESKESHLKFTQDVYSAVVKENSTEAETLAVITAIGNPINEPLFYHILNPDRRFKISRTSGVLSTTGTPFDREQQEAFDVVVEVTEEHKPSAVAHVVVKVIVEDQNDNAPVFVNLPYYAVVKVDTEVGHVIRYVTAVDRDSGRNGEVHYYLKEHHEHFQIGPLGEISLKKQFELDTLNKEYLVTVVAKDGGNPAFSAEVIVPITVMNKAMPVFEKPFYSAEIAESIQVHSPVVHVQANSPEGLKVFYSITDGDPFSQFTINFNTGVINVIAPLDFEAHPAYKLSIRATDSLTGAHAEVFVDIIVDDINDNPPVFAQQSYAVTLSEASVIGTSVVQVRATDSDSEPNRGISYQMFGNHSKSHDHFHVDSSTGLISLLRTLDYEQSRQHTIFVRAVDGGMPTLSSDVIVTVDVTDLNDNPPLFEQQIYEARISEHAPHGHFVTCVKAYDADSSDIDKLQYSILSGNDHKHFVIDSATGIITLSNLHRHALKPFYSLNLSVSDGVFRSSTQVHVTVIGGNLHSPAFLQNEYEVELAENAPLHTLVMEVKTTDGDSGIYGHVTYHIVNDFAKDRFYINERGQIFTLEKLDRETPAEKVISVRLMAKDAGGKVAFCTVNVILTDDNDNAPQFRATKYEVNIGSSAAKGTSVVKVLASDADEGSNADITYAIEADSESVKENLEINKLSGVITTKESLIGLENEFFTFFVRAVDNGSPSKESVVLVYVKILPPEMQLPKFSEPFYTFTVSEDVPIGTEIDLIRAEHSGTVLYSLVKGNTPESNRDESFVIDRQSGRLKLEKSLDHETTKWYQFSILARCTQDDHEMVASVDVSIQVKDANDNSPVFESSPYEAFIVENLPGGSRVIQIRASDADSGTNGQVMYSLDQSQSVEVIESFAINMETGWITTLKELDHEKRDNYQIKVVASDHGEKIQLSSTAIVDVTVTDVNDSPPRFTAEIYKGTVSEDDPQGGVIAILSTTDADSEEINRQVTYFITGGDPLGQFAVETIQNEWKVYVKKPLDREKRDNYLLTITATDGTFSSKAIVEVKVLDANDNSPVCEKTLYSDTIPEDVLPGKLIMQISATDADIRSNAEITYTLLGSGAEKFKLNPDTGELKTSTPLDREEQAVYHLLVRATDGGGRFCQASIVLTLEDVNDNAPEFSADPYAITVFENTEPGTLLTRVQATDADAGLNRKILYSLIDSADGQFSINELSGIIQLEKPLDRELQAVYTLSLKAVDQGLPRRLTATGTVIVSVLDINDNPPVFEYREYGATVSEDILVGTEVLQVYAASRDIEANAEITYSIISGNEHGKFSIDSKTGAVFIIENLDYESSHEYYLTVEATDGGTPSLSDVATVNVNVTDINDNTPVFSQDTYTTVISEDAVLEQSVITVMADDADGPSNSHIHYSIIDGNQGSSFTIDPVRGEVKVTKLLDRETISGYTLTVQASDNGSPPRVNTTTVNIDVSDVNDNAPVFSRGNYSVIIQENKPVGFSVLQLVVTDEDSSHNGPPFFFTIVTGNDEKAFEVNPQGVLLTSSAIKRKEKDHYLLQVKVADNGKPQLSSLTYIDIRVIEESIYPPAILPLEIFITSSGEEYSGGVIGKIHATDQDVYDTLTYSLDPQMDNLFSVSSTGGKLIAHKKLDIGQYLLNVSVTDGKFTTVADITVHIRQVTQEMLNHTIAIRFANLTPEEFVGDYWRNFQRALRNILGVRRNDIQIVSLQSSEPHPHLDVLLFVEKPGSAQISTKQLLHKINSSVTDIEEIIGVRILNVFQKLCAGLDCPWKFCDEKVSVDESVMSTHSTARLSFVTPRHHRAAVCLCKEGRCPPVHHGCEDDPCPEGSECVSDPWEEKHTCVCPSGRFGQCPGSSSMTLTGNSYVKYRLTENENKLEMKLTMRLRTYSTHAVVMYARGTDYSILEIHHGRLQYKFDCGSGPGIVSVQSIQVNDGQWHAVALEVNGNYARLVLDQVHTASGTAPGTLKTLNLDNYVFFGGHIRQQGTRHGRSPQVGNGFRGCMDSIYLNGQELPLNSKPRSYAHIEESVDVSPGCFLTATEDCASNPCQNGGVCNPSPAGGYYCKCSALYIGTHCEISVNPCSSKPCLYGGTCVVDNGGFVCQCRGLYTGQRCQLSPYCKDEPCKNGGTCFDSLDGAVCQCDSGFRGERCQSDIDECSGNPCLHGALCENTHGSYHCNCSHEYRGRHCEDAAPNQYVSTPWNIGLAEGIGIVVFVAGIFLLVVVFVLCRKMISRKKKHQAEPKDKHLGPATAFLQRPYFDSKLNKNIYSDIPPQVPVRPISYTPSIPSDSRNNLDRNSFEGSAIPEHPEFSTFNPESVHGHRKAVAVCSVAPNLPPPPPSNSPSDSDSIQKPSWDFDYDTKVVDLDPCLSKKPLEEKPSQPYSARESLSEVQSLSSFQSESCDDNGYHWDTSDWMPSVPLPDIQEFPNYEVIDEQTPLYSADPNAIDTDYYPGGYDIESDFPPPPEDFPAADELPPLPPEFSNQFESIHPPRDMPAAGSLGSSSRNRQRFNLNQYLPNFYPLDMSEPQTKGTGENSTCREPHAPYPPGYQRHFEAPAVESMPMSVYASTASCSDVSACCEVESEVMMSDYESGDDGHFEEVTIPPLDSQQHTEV
UniProt Q13164: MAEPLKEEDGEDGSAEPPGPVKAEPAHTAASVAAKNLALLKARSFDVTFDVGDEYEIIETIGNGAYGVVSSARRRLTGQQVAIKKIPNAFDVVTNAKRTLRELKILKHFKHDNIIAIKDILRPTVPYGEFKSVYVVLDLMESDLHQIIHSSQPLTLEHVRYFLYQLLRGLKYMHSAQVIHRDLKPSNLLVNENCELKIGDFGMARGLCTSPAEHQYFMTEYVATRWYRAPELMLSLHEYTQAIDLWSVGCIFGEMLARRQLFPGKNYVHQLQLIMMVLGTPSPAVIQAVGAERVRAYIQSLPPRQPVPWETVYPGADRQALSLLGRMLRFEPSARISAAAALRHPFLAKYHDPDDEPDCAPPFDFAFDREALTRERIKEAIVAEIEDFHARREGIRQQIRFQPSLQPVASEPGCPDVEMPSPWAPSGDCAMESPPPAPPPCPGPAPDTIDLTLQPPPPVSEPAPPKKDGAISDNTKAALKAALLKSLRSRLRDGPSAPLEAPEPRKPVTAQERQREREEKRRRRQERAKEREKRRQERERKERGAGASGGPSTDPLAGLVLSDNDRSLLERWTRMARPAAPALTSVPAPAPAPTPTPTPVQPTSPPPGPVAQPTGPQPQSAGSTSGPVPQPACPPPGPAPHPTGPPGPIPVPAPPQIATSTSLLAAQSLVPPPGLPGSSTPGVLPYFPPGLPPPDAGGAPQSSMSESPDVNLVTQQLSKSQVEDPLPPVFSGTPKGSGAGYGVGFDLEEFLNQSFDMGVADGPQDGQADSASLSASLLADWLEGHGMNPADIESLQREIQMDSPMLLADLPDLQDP
UniProt Q14781, whole entry: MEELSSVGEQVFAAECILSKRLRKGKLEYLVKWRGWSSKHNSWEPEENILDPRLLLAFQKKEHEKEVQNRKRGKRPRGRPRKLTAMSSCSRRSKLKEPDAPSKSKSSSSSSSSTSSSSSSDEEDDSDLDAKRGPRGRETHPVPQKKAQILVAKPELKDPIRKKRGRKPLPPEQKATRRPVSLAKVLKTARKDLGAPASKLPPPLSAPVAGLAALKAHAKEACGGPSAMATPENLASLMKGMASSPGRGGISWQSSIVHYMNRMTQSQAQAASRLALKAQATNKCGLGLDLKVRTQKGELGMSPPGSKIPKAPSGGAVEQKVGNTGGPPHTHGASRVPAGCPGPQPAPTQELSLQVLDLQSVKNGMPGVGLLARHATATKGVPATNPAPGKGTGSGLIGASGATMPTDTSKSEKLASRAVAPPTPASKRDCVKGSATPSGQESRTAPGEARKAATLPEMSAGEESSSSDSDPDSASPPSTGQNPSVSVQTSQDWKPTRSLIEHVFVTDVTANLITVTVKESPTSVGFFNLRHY
UniProt Q14145, whole entry: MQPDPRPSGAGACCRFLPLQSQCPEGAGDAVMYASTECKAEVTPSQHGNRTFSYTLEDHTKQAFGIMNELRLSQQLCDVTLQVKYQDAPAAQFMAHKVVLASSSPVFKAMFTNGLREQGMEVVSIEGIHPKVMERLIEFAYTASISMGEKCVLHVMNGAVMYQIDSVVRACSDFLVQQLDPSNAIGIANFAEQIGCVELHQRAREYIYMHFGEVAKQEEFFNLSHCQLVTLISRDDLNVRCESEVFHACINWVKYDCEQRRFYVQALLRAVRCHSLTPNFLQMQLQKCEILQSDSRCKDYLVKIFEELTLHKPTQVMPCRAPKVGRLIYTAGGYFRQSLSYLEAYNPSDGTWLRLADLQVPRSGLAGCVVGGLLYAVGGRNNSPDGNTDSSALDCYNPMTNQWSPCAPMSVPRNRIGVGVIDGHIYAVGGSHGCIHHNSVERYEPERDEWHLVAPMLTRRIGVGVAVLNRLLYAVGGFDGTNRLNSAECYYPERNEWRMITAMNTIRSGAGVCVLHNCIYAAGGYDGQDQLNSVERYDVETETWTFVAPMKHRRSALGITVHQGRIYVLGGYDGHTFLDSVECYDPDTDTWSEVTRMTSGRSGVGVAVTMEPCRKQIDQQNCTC

The list shows a part of the results. Most values lie at the level of the controls, where differences are scatter.

Compound in the assay: Cc1nc(Nc2ncc(C(=O)Nc3c(C)cccc3Cl)s2)cc(N2CCN(CCO)CC2)n1 [dasatinib]
Put plainly: log2 fold change of tryptic peptide abundance, ligand vs vehicle (limited proteolysis) (log2 ratio); higher = more trypsin-susceptible (destabilized). The settings on record: ligand concentration: 5 uM; sample: K562 cleared lysate.
Take “DHRS2 (peptide sequence: VNCVVPGIIKTDFSK, peptide start residue: 210) (UniProt Q13268)”: the log2 fold change was -0.427. Then “KIF22 (peptide sequence: LYLIDLAGSEDNRR, peptide start residue: 270) (UniProt Q14807)”, with 0.164; and “ZMYM3 (peptide sequence: TRNDVFYLQPER, peptide start residue: 1313) (UniProt Q14202)”, with -0.107; and “NAE1 (peptide sequence: EHFQSYDLDHMEKK, peptide start residue: 194) (UniProt Q13564)”, with -0.502. For “UniProt Q13885 (peptide sequence: INVYYNEAAGNKYVPR, peptide start residue: 47)”, the log2 fold change is -0.0359. On to “USP10 (peptide sequence: IAELLENVTLIHKPVSLQPR, peptide start residue: 396) (UniProt Q14694)”, for which the log2 fold change was 0.0873.

Consider “DRAP1 (peptide sequence: KIMQTDEEIGK, peptide start residue: 19) (UniProt Q14919)”, for which the log2 fold change is -0.186. “MBTPS1 (peptide sequence: HLGDRLEK, peptide start residue: 20) (UniProt Q14703)”: the log2 fold change was -0.144.

On to “FAT1 (peptide sequence: PLEEKPSQPYSAR, peptide start residue: 4347) (UniProt Q14517)”, for which the log2 fold change was -0.0383. Turning to “CUL3 (peptide sequence: FLLESFNNDR, peptide start residue: 355) (UniProt Q13618)”, the log2 fold change is -0.33. As to “UniProt Q13164 (peptide sequence: DGPSAPLEAPEPR, peptide start residue: 493)”, the log2 fold change was 0.276.

Regarding “LPIN1 (peptide sequence: LCEVVDHVFPLLK, peptide start residue: 842) (UniProt Q14693)”, the log2 fold change is -0.509. Then “CBX2 (peptide sequence: GVPATNPAPGK, peptide start residue: 380) (UniProt Q14781)”, with 0.347. For “PIN1 (peptide sequence: VYYFNHITNASQWER, peptide start residue: 22) (UniProt Q13526)”, the log2 fold change came to 0.189. On to “MTM1 (peptide sequence: LEELQLANSAK, peptide start residue: 571) (UniProt Q13496)”, for which the log2 fold change was -0.668. As for “GTF2H3 (peptide sequence: QALKESQFTLSK, peptide start residue: 25) (UniProt Q13889)”, the log2 fold change was -0.6.

Take “DIP2A (peptide sequence: QKQPEVGPASMIVGNLVAGKR, peptide start residue: 943) (UniProt Q14689)”: the log2 fold change came to 0.325. In the case of “RAPGEF1 (peptide sequence: VVDNSPPPALPPK, peptide start residue: 277) (UniProt Q13905)”, the log2 fold change was -1.43. The result for “EIF2B1 (peptide sequence: VAQTGQDLK, peptide start residue: 259) (UniProt Q14232)” reads 0.059; that for “KEAP1 (peptide sequence: QAFGIMNELR, peptide start residue: 62) (UniProt Q14145)”, -0.242.

As to “UBAP2L (peptide sequence: IDLAVLLGK, peptide start residue: 282) (UniProt Q14157)”, the log2 fold change was -0.201.

“SAFB2 (peptide sequence: NLWVSGLSSTTR, peptide start residue: 408) (UniProt Q14151)”: the log2 fold change was 0.294. Turning to “CBFB (peptide sequence: EAGKVYLKAPMILNGVCVIWK, peptide start residue: 91) (UniProt Q13951)”, the log2 fold change turned out to be 0.453.

For the target “NCOA4 (peptide sequence: AEQQIKDNLR, peptide start residue: 37) (UniProt Q13772)”, the log2 fold change is -0.812. As for “GINS1 (peptide sequence: NSQHFLPR, peptide start residue: 172) (UniProt Q14691)”, the log2 fold change is 0.207. As for “KIAA0100 (peptide sequence: LLIGLSVGDKNPGKK, peptide start residue: 2214) (UniProt Q14667)”, the log2 fold change was -0.32.
